Some of the results follow.
Tests used:
Test in all cases: log2 fold change, soluble protein after heating vs DMSO (PISA); higher = thermal stabilisation; K562 lysate, 10 uM; active = over 0.2 and 3.5 SD of the protein, either way, in both replicates (recomputed)
[1] = compound: C#Cc1cccc(Nc2ncnc3cc(OCCOC)c(OCCOC)cc23)c1 [erlotinib]
Summary of the method: (§1)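 Following dounce homogenisation of K562 pellets in PBS pH 7.4 with 1 mM MgCl2, crude extract at 1 mg/mL protein was incubated for 30 min with 10 μM compound. Aliquots were then heated for 3 min over 48°C-58°C and pooled, NP-40 was added to 0.5% at 4°C, and soluble protein was recovered as the supernatant at 21,000xg for 90 min. Channel-sum-equalised TMTpro 16plex LC-MS/MS quantified this protein. Each value, from duplicates, is a log-two fold change in thermal stability relative to solvent controls.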

Sequences of proteins named here, by UniProt entry; tags and fusion partners are left off. A change or cut given only in a name is not applied to a line headed by its entry.
UniProt O00487, whole entry, looked up: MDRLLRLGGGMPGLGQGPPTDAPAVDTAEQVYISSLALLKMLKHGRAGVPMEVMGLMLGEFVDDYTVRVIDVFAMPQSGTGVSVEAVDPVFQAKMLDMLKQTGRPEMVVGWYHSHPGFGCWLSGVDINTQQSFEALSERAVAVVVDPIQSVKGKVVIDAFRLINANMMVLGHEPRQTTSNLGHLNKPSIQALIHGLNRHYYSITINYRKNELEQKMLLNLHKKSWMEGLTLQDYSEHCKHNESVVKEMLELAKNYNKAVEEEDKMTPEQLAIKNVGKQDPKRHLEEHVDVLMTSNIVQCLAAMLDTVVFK
UniProt O43242, whole entry, looked up: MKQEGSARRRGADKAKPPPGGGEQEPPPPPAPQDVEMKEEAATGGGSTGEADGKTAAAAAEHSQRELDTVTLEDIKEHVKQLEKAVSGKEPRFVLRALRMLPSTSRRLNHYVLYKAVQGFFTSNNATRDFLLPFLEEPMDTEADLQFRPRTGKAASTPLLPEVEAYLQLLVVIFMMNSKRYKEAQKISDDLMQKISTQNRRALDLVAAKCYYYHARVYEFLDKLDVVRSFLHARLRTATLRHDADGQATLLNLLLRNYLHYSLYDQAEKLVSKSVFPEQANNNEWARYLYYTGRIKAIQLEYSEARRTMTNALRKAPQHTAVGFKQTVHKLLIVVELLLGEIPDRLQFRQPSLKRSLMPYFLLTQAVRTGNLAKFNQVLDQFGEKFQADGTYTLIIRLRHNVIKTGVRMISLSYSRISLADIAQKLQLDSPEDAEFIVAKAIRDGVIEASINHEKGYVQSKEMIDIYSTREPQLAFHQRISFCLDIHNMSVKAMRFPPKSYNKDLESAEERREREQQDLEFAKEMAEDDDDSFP
UniProt Q9BT73: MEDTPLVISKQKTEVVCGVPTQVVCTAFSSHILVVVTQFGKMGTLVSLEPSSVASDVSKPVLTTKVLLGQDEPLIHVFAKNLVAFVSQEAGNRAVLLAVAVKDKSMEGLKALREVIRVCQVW
UniProt Q9Y6M0: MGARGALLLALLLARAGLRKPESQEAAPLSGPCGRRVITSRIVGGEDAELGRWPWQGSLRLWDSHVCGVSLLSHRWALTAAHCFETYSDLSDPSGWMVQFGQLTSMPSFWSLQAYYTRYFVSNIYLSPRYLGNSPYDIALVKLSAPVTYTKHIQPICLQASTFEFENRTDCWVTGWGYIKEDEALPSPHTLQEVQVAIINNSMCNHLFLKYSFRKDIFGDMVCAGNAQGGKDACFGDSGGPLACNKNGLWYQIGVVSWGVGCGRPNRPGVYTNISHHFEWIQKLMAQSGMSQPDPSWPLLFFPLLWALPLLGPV
UniProt Q5JS54: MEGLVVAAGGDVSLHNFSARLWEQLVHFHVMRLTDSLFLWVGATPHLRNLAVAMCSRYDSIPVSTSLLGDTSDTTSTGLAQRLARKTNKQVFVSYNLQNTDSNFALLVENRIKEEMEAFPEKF
UniProt Q96QR8: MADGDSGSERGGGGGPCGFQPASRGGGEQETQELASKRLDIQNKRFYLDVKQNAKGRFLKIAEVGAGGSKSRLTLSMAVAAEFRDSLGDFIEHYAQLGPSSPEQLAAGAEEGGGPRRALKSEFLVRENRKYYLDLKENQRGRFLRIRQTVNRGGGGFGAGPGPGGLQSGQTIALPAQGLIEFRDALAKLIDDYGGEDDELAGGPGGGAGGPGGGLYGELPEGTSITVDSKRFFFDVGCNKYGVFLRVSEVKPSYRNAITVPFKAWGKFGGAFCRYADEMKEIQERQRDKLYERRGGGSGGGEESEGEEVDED
UniProt P29350: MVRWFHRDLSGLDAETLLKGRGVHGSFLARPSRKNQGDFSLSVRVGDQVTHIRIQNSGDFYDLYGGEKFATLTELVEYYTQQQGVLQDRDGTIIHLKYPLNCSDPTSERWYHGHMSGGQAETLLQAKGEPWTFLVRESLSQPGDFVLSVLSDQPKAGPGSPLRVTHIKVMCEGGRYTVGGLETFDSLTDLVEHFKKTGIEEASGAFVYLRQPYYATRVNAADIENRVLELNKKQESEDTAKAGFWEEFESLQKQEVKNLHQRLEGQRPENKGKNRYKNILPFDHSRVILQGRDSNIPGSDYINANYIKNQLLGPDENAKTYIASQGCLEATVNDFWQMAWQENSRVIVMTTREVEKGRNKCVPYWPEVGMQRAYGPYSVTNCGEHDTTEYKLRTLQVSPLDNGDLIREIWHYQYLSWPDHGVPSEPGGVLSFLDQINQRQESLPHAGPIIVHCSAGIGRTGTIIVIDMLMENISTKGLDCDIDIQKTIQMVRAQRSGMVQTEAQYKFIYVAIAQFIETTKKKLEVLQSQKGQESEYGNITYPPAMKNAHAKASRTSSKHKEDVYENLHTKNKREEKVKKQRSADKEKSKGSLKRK
UniProt Q9BZE2: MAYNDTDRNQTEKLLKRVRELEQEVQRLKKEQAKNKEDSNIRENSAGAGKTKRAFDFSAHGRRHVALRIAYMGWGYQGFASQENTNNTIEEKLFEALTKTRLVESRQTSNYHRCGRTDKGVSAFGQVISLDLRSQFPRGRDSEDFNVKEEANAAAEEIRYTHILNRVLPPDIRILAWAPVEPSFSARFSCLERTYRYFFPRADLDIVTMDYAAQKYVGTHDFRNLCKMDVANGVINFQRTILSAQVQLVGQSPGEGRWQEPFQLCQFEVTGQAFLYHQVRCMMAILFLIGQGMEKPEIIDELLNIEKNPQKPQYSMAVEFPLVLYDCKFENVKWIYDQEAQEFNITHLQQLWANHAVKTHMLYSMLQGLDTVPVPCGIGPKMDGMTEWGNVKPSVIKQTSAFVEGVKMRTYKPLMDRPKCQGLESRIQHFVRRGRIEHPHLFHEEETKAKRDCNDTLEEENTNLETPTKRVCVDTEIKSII
UniProt P78330: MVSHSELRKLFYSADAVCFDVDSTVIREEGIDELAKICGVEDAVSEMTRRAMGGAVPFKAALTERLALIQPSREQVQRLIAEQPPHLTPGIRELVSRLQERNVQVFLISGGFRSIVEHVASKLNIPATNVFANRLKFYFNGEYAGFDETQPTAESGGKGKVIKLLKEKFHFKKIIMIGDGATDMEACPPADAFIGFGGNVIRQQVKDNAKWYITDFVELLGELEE
UniProt Q8N0Z8: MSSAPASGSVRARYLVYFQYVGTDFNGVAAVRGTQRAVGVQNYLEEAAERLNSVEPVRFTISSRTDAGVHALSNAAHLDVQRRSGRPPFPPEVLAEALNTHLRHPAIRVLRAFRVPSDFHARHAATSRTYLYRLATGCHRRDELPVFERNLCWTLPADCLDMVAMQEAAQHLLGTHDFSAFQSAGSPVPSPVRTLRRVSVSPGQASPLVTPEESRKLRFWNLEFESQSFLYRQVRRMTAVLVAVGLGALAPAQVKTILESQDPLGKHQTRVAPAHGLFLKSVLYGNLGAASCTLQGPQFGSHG
UniProt P60900, whole entry, looked up: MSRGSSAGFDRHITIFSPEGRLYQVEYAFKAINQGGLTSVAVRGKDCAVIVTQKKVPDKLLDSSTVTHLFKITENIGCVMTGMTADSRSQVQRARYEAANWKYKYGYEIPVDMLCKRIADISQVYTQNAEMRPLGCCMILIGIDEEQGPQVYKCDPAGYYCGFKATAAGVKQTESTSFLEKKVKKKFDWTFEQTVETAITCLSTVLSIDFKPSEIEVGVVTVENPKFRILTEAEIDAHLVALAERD
UniProt P48556: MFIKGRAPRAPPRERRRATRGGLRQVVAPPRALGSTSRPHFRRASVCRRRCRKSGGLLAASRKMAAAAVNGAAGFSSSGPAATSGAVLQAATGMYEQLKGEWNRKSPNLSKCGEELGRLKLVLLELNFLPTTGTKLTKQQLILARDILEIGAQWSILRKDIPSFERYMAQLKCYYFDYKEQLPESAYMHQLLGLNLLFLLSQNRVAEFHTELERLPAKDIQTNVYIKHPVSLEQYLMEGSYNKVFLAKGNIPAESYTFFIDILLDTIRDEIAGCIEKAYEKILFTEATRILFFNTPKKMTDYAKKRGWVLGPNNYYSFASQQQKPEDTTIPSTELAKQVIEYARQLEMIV
UniProt Q9UL46, whole entry, looked up: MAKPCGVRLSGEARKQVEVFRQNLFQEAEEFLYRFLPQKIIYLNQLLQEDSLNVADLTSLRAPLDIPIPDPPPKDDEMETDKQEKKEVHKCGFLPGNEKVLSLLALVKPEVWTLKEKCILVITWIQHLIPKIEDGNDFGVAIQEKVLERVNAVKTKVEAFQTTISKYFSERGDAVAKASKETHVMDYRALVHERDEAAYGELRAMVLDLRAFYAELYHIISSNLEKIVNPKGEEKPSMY
UniProt Q14671: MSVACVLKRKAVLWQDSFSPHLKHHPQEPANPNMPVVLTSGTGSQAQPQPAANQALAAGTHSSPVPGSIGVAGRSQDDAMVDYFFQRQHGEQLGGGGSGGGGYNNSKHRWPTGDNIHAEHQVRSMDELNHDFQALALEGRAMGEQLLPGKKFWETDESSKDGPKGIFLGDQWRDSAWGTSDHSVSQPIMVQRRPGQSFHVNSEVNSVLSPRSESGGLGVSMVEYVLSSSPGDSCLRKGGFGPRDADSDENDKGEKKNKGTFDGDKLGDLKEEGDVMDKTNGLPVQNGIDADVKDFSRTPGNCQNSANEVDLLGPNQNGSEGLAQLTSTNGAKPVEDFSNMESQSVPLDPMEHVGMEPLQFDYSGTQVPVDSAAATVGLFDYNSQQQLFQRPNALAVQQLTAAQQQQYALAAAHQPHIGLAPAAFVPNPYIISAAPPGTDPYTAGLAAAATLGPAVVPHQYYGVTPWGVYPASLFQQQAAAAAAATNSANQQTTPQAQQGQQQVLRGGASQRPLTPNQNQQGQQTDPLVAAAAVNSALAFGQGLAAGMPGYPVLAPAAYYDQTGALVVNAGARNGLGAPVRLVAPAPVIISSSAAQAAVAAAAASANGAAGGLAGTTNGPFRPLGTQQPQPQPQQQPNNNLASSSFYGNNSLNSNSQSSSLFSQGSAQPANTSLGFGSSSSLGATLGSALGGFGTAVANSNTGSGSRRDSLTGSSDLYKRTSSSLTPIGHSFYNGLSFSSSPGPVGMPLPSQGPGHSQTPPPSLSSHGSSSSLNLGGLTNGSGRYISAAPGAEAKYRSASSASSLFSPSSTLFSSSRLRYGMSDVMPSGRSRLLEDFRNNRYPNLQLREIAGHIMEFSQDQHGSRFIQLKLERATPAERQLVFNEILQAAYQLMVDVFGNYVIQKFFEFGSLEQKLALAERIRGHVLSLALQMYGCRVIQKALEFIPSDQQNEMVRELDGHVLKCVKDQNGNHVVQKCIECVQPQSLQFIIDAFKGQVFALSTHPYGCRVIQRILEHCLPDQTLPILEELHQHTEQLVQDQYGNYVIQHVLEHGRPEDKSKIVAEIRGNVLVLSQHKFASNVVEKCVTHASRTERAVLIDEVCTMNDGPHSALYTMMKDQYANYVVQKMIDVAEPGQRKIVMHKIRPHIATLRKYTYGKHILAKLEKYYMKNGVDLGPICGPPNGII
UniProt Q96M27: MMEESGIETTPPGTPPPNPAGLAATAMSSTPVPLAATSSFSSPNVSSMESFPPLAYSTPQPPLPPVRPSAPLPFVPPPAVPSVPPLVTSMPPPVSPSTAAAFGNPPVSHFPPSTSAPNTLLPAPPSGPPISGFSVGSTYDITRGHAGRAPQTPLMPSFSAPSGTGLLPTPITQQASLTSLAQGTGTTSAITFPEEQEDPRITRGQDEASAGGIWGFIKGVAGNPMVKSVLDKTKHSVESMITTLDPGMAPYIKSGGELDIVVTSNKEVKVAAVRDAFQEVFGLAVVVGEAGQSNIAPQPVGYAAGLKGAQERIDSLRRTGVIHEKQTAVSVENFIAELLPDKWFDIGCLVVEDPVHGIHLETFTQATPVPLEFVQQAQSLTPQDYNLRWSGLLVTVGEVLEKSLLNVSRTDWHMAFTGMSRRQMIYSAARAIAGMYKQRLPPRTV
UniProt Q9Y617: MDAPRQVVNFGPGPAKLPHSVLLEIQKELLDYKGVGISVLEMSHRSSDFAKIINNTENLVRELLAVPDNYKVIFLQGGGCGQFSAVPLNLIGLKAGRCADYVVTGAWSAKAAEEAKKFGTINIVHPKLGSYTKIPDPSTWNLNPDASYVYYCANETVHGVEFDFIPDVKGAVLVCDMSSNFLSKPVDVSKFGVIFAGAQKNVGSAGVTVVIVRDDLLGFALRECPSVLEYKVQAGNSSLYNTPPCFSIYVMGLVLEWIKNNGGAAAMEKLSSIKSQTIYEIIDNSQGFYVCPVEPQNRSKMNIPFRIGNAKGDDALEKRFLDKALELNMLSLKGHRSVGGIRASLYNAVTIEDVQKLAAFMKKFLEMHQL
UniProt P55036: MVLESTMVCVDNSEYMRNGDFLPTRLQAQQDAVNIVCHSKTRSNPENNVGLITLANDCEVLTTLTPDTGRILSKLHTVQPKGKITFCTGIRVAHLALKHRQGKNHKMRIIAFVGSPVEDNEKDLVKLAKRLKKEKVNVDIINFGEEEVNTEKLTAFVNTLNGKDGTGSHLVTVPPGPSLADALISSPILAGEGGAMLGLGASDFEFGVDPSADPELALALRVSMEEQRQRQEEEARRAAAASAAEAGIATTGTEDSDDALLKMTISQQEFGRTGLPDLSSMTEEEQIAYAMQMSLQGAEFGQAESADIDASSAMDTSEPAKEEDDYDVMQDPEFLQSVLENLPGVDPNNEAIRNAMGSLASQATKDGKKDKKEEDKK

[2] = compound: C/C(=N\NC(=O)C1=CC(=CC=C1)S(=O)(=O)N2CCOCC2)/C3=C(C=CC(=C3)Cl)O
Summary of the method: as §1

[3] = compound: C1=CC(=CC=C1C2=NC3=C(N2)C=C(C=C3)C(=O)N)OC4=CC=C(C=C4)Cl
Summary of the method: as §1

[4] = compound: C1=CC2=C(C=CC(=C2)/C=C\3/C(=O)NC(=NCC4=CC=CS4)S3)N=C1
Summary of the method: as §1

[5] = compound: C1=CC2=NC=CN=C2C=C1/C=C/3\C(=O)NC(=O)S3
Summary of the method: as §1

[6] = compound: C1=CC=C(C=C1)C2=NC(=C(N2)C3=CC=NC=C3)C4=CC(=C(C=C4)Cl)O
Summary of the method: as §1

[7] = compound: C1=CC=C2C(=C1)C3=NNC4=CC=CC(=C43)C2=O
Summary of the method: as §1

[8] = compound: C1CCN(C1)C(=O)NC2=CC=CC(=C2)NC3=NC=C(C(=N3)NCCC4=CN=CN4)Br
Summary of the method: as §1

[9] = compound: C1CN(CCC1(CC2=CC=C(C=C2)Cl)N)C3=NC=NC4=C3C=CN4
Summary of the method: as §1

[10] = compound: C1COCCN1CCN2C3=CC=CC=C3N=C2NC(=O)C4=CC(=CC=C4)[N+](=O)[O-] [IRAK-1-4 Inhibitor I]
Summary of the method: as §1

Measured: log2 fold change

PSME4 (UniProt Q14997)
inactive: [1] 0.027 | [2] 0.031 | [3] -0.008 | [4] 0.044 | [5] -0.004 | [6] 0.027 | [7] -0.029 | [8] -0.013 | [9] 0.012 | [10] 0.056

PSMD14 (UniProt O00487)
inactive: [1] 0.011 | [2] 0.065 | [3] -0.013 | [4] 0.027 | [5] 0.008 | [6] 0.016 | [7] 0.024 | [8] -0.004 | [9] -0.012 | [10] -0.044

PSMD3 (UniProt O43242)
inactive: [1] 0.006 | [2] -0.022 | [3] -0.02 | [4] 0.002 | [5] -0.014 | [6] -0.002 | [7] 0.023 | [8] 0.005 | [9] -0.004 | [10] 0.008

PSMA5 (UniProt P28066)
inactive: [1] 0.002 | [2] -0.031 | [3] 0.027 | [4] 0.01 | [5] -0.02 | [6] 0.003 | [7] -0.012 | [8] 0.007 | [9] 0.02 | [10] 0.005

PTK2B (UniProt Q14289)
inactive: [1] 0.024 | [2] -0.012 | [3] 0.001 | [4] -0.012 | [5] -0.053 | [6] 0.027 | [7] 0.066 | [8] 0.067 | [9] -0.068 | [10] 0.077

PSMG3 (UniProt Q9BT73)
inactive: [1] 0.025 | [2] -0.046 | [3] 0.006 | [4] -0.038 | [5] 0 | [6] -0.002 | [7] 0.038 | [8] -0.005 | [9] -0.018 | [10] 0.018

PRRC2A (UniProt P48634)
inactive: [1] -0.026 | [2] -0.018 | [3] 0.073 | [4] -0.002 | [5] 0.006 | [6] -0.09 | [7] 0.014 | [8] 0.01 | [9] 0.006 | [10] 0.026

PRSS21 (UniProt Q9Y6M0)
inactive: [1] 0 | [2] -0.021 | [3] 0.067 | [4] 0.031 | [5] 0.049 | [6] 0.008 | [7] -0.018 | [8] -0.003 | [9] 0.047 | [10] -0.019

PSMD11 (UniProt O00231)
inactive: [1] -0.01 | [2] -0.08 | [3] -0.015 | [4] 0.009 | [5] -0.005 | [6] 0.012 | [7] 0.017 | [8] 0 | [9] -0.007 | [10] -0.001

PSMC4 (UniProt P43686)
inactive: [1] 0.012 | [2] 0.008 | [3] -0.012 | [4] 0.008 | [5] -0.012 | [6] 0.015 | [7] -0.023 | [8] -0.007 | [9] -0.022 | [10] 0.003

PRPH isoform 2 (UniProt P41219)
inactive: [1] -0.007 | [2] 0.042 | [3] -0.025 | [4] -0.032 | [5] 0.066 | [6] -0.001 | [7] -0.114 | [8] 0.072 | [9] -0.005 | [10] -0.011

PSMG4 isoform 2 (UniProt Q5JS54)
inactive: [1] -0.043 | [2] 0.001 | [3] 0.033 | [4] -0.037 | [5] -0.014 | [6] -0.013 | [7] 0.042 | [8] -0.03 | [9] 0.044 | [10] -0.028

PURB (UniProt Q96QR8)
inactive: [1] -0.016 | [2] -0.028 | [3] 0.035 | [4] 0.004 | [5] -0.004 | [6] 0.011 | [7] 0.051 | [8] 0.048 | [9] -0.114 | [10] 0.026

PTMA (UniProt P06454)
inactive: [1] -0.002 | [2] 0.062 | [3] 0.067 | [4] -0.013 | [5] -0.002 | [6] 0.01 | [7] -0.017 | [8] -0.009 | [9] -0.017 | [10] -0.037

PTPN6 isoform 4 (UniProt P29350)
inactive: [1] 0.054 | [2] 0.097 | [3] -0.03 | [4] -0.05 | [5] 0.047 | [6] 0.04 | [7] 0.033 | [8] -0.078 | [9] -0.224 | [10] -0.073

PSMC1 (UniProt P62191)
inactive: [1] 0.007 | [2] -0.021 | [3] -0.037 | [4] -0.004 | [5] -0.031 | [6] 0.001 | [7] -0.012 | [8] 0.002 | [9] 0 | [10] -0.018

PUS3 (UniProt Q9BZE2)
inactive: [1] -0.014 | [2] 0.043 | [3] -0.028 | [4] -0.048 | [5] 0.048 | [6] -0.006 | [7] -0.064 | [8] -0.028 | [9] 0.097 | [10] -0.058

PSPH (UniProt P78330)
inactive: [1] -0.014 | [2] -0.051 | [3] 0.027 | [4] -0.007 | [5] 0.011 | [6] -0.003 | [7] -0.011 | [8] 0.013 | [9] 0.015 | [10] 0.029

PUSL1 (UniProt Q8N0Z8)
inactive: [1] 0 | [2] -0.043 | [3] 0.197 | [4] 0.001 | [5] -0.1 | [6] -0.061 | [7] 0.042 | [8] 0.021 | [9] -0.053 | [10] 0.028

PSMA6 (UniProt P60900)
inactive: [1] 0.013 | [2] 0.039 | [3] 0.008 | [4] -0.016 | [5] 0.014 | [6] -0.018 | [7] 0.016 | [8] 0.011 | [9] -0.017 | [10] 0.01

PSMD8 (UniProt P48556)
inactive: [1] -0.022 | [2] -0.019 | [3] -0.033 | [4] 0.074 | [5] -0.019 | [6] -0.002 | [7] -0.016 | [8] 0 | [9] 0.032 | [10] 0.028

PSME2 (UniProt Q9UL46)
inactive: [1] -0.024 | [2] -0.022 | [3] -0.001 | [4] 0.007 | [5] 0.014 | [6] -0.012 | [7] -0.036 | [8] -0.01 | [9] 0.029 | [10] 0.034

PSMD7 (UniProt P51665)
inactive: [1] -0.003 | [2] -0.087 | [3] 0.02 | [4] 0.006 | [5] -0.035 | [6] -0.004 | [7] -0.016 | [8] -0.012 | [9] 0.007 | [10] 0.003

PUM1 isoform 3 (UniProt Q14671)
inactive: [1] -0.025 | [2] 0.051 | [3] 0.06 | [4] -0.028 | [5] 0.02 | [6] -0.052 | [7] -0.033 | [8] 0.01 | [9] 0.013 | [10] 0.011

PRRC1 (UniProt Q96M27)
inactive: [1] -0.028 | [2] -0.038 | [3] 0.043 | [4] -0.008 | [5] -0.017 | [6] -0.007 | [7] -0.006 | [8] -0.013 | [9] -0.013 | [10] 0.023

PTPRA (UniProt P18433)
inactive: [1] -0.017 | [2] 0 | [3] 0.053 | [4] -0.041 | [5] -0.009 | [6] -0.03 | [7] -0.025 | [8] -0.082 | [9] 0.027 | [10] 0.017

PWP2 (UniProt Q15269)
inactive: [1] 0.051 | [2] -0.076 | [3] -0.036 | [4] 0.02 | [5] 0.015 | [6] -0.012 | [7] -0.013 | [8] 0.018 | [9] 0.04 | [10] -0.027

Taken from the listing (two entries):
PRRC1 (UniProt Q96M27)
inactive: [1] -0.028 | [2] -0.038 | [3] 0.043 | [4] -0.008 | [5] -0.017 | [6] -0.007 | [7] -0.006 | [8] -0.013 | [9] -0.013 | [10] 0.023

PTPRA (UniProt P18433)
inactive: [1] -0.017 | [2] 0 | [3] 0.053 | [4] -0.041 | [5] -0.009 | [6] -0.03 | [7] -0.025 | [8] -0.082 | [9] 0.027 | [10] 0.017

Later entries

PSAT1 (UniProt Q9Y617)
inactive: [1] -0.011 | [2] 0.009 | [3] 0.023 | [4] -0.001 | [5] 0.003 | [6] 0.007 | [7] -0.008 | [8] -0.022 | [9] 0.018 | [10] 0.015

PTPN9 (UniProt P43378)
inactive: [1] 0.118 | [2] 0.171 | [3] -0.022 | [4] -0.124 | [5] 0.112 | [6] 0.214 | [7] 0.141 | [8] 0.091 | [9] 0.338 | [10] 0.016

PSMD4 (UniProt P55036)
inactive: [1] 0.001 | [2] -0.017 | [3] -0.003 | [4] 0.01 | [5] -0.011 | [6] 0.007 | [7] -0.019 | [8] 0.008 | [9] 0.031 | [10] -0.012
